The target in this assay is Signal Transduction and Activator of Transcription-1 (STAT1) (human (endogenous in HEK293)) (UniProt P42224). As to the kind of experiment: co-IP; HEK293WT cells transfected with P301L-hTau.

Sequences of proteins named here, by UniProt entry; tags and fusion partners are left off. A change or cut given only in a name is not applied to a line headed by its entry. A line that says so, or that is headed by a name, gives the form on record, which may keep a tag or linker.
UniProt P42224: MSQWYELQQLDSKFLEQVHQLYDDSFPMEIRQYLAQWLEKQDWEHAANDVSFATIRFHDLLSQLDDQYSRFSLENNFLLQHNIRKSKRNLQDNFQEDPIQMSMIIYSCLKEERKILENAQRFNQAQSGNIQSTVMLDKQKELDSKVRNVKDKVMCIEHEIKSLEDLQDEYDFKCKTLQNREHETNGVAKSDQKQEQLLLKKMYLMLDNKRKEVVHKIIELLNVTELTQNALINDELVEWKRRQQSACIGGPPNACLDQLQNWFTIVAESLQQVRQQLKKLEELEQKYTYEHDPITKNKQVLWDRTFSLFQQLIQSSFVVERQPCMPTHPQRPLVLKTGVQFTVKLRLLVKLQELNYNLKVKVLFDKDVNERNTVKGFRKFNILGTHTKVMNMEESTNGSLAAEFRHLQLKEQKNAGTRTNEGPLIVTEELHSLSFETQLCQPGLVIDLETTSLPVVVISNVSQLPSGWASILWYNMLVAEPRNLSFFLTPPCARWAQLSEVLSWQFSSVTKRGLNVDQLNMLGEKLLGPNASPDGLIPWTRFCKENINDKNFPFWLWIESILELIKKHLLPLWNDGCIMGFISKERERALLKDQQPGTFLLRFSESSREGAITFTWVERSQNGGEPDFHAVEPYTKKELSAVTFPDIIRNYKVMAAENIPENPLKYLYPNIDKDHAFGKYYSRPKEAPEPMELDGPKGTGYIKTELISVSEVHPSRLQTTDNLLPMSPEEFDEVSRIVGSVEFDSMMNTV
human P301L mutant tau (P301L-hTau), expressed from plasmid in HEK293 cells (P10636-8, form named): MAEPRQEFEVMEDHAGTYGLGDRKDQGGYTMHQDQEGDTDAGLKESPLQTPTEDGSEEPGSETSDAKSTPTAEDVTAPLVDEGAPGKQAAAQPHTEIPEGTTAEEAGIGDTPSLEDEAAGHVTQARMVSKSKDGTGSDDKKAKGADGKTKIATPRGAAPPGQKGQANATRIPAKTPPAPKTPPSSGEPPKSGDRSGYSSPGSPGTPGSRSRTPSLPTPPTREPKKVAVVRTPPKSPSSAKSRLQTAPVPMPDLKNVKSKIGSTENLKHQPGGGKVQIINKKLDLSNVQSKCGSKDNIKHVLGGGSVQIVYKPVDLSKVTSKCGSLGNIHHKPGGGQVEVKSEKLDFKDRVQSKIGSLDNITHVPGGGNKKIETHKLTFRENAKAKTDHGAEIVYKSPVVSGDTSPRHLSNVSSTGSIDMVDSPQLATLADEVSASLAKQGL

These are yes or no findings as the source states them, for the method shown. In cells and extracts the contact can be indirect. Some results given as binding are weak or reduced against the parent protein; the word gives no strength.

As to “human P301L mutant tau (P301L-hTau), expressed from plasmid in HEK293 cells (from UniProt P10636-8 1-441)”, the binding result was “binds”.

For the origin of these results see paper PMC7762755.
